Values of other authors in patent US6673798B2, “PDGF receptor kinase inhibitory compounds, their preparation, purification and pharmaceutical compositions including same” (Yissum Research Development Company of the Hebrew …, priority 1999, dated 2004).
Some of these results come from one statement about several compounds together. For at least one compound, name, drawing or mass did not settle the structure.

Columns and labels:
Swiss 3T3 cells = conditions: read-out: 50% inhibitory concentration, PDGF receptor kinase and PDGF dependent DNA synthesis; cited from earlier work
[1] = system: porcine aorta endothelial cells (EC); conditions: read-out: 50% inhibitory concentration, PDGF receptor kinase and PDGF dependent DNA synthesis; cited from earlier work

Compound: Cc1cc2ncc(-c3ccccc3)nc2cc1C [AG1295]
- IC50 (Swiss 3T3 cells): < 5000 nM
- IC50 [1]: < 1000 nM
